Laboratory results from the supplement of paper PMC10849652.
Some of the results follow.

Amino acid sequences for entries named in this document (tags omitted). A change or cut given only in a name is not applied to a line headed by its entry.
UniProt Q9Y496, whole entry, looked up: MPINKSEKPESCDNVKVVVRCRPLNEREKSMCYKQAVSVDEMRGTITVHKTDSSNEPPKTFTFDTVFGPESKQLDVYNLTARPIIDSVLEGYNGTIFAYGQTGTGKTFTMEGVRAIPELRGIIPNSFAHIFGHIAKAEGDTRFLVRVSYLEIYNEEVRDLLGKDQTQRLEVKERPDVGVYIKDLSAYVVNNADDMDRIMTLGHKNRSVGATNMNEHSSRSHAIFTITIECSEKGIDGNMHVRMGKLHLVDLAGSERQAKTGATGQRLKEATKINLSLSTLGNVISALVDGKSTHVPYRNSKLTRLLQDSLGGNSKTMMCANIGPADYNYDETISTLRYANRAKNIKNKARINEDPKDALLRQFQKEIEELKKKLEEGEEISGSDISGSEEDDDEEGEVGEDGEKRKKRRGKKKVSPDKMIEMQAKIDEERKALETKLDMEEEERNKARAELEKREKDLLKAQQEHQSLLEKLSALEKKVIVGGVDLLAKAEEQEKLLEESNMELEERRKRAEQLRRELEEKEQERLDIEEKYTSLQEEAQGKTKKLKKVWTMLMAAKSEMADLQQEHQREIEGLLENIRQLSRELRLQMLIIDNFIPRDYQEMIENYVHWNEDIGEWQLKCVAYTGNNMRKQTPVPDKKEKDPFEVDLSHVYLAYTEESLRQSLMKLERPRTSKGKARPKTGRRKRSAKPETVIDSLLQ
UniProt Q9H3F6: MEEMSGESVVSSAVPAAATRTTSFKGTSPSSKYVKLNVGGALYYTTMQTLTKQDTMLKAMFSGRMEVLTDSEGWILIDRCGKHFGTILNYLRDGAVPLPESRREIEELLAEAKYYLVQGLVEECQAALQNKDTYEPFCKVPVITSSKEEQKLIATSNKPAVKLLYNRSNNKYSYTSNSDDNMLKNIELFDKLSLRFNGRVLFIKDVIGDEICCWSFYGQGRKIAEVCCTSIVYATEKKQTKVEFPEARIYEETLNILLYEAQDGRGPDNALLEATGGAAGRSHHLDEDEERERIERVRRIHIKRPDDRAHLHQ
UniProt O95251, whole entry, looked up: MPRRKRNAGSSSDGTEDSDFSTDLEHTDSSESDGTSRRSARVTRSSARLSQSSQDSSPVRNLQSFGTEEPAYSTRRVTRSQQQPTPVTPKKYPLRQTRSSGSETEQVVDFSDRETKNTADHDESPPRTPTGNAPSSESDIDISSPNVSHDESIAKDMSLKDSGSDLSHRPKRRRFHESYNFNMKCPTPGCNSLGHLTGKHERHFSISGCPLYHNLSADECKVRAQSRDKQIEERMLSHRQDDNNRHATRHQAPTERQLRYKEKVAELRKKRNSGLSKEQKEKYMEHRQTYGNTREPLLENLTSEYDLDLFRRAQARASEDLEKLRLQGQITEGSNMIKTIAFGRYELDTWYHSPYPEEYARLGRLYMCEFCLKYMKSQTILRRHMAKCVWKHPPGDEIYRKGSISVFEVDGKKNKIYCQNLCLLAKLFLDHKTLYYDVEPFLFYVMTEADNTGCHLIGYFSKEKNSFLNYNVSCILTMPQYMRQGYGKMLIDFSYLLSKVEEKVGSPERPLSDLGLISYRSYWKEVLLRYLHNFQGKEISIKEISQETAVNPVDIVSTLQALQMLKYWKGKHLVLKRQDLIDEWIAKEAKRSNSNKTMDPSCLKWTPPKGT
UniProt Q13351: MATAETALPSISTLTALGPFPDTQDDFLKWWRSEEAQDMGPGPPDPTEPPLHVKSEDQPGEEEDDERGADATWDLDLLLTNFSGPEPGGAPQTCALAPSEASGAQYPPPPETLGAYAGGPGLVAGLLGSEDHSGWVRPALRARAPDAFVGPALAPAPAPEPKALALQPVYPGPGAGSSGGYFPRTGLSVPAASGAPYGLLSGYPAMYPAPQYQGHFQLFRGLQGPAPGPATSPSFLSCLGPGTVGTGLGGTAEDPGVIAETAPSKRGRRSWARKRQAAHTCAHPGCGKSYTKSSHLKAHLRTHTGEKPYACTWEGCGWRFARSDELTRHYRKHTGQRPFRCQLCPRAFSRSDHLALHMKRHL
UniProt P50748: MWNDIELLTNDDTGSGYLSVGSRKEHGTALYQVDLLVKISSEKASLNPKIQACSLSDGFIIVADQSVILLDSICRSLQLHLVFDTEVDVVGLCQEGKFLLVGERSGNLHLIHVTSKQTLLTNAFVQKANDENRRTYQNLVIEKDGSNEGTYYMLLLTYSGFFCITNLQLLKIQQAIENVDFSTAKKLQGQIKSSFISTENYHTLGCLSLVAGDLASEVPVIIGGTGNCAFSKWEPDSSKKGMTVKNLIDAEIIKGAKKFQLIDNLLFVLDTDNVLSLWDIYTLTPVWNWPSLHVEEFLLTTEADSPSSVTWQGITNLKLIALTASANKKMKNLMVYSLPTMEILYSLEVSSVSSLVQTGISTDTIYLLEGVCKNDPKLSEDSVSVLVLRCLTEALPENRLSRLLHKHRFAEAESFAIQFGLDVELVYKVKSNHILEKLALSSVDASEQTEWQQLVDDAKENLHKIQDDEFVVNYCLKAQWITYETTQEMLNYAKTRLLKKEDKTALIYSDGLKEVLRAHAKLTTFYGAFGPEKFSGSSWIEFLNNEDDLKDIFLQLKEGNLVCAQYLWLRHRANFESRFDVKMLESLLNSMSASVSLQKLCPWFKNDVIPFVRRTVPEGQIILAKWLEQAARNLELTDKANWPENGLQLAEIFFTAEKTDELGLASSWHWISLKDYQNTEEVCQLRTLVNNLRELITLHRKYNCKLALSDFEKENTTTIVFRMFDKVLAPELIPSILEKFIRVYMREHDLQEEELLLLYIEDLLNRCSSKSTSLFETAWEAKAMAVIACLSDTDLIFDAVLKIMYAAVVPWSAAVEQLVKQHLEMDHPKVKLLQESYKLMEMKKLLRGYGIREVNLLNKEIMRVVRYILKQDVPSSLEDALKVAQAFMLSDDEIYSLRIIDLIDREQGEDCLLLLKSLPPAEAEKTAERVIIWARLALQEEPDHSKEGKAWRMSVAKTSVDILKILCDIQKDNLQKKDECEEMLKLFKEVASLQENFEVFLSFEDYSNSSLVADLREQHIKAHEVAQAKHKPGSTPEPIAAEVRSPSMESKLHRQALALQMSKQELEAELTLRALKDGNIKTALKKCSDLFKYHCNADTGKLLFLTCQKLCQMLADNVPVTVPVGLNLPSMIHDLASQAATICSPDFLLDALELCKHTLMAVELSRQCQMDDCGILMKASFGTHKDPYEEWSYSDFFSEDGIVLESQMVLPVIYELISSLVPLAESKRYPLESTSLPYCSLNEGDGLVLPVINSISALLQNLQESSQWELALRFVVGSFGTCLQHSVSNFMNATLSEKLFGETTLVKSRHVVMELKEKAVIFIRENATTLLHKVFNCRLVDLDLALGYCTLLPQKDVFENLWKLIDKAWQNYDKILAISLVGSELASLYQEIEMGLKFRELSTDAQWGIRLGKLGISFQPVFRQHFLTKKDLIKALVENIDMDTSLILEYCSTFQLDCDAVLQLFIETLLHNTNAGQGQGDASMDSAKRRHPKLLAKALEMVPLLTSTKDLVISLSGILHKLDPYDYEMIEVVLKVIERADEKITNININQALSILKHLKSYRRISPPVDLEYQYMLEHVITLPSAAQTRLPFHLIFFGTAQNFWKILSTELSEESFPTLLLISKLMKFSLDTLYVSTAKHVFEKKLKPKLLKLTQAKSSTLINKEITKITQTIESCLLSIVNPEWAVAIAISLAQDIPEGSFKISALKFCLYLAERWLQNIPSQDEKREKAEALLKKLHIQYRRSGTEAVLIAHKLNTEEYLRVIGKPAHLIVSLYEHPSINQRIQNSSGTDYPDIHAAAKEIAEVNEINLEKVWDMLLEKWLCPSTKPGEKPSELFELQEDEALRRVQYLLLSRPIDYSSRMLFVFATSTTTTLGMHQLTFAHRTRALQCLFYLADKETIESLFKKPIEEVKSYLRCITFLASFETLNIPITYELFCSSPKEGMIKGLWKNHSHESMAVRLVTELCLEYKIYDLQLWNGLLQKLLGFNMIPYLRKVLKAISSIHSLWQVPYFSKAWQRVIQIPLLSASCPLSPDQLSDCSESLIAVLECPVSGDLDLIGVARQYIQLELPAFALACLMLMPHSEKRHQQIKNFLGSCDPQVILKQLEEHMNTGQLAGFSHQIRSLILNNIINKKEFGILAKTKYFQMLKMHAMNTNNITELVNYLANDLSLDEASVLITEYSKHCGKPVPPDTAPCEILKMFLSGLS
UniProt Q15058: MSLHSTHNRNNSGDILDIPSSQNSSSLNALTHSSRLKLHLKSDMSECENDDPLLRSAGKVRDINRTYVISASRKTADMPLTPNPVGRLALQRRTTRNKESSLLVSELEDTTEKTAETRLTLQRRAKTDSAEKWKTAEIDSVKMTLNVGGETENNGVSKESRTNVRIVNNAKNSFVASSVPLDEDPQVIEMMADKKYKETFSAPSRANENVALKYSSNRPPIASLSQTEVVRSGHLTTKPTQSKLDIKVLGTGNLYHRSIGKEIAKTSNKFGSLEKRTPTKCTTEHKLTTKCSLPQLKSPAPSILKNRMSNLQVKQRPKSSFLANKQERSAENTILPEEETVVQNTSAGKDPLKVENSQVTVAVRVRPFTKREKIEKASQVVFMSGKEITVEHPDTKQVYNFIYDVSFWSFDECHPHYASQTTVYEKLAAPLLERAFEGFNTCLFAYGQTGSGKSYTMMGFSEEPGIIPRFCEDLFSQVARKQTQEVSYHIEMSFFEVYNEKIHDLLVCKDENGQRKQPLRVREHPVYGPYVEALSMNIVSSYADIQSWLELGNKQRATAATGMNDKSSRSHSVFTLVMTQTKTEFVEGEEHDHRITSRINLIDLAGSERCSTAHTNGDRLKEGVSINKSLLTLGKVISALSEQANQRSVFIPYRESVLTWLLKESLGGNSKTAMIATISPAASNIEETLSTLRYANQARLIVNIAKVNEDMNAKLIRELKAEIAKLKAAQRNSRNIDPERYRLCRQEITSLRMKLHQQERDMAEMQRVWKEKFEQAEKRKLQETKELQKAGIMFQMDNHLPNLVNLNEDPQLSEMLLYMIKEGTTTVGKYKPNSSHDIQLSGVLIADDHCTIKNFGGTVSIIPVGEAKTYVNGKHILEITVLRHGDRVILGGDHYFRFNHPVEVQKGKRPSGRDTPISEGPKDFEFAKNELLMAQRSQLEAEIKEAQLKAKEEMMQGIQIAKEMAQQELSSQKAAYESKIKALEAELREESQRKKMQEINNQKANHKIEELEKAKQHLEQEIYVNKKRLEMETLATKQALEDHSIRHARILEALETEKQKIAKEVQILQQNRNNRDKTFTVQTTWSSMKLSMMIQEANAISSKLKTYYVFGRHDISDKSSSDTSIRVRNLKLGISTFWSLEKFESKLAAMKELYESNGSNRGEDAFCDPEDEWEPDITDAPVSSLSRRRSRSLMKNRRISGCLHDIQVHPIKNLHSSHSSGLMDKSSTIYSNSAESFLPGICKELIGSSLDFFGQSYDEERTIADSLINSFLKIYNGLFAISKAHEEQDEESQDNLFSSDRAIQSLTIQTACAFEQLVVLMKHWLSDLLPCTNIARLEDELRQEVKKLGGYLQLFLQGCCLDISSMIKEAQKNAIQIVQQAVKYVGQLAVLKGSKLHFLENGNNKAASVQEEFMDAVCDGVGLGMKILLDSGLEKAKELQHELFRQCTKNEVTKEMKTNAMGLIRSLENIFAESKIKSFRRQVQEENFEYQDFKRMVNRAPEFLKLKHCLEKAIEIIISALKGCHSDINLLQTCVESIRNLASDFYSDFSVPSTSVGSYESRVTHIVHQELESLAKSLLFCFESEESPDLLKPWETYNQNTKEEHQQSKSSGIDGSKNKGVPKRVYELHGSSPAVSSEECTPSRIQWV
UniProt Q14145, whole entry, looked up: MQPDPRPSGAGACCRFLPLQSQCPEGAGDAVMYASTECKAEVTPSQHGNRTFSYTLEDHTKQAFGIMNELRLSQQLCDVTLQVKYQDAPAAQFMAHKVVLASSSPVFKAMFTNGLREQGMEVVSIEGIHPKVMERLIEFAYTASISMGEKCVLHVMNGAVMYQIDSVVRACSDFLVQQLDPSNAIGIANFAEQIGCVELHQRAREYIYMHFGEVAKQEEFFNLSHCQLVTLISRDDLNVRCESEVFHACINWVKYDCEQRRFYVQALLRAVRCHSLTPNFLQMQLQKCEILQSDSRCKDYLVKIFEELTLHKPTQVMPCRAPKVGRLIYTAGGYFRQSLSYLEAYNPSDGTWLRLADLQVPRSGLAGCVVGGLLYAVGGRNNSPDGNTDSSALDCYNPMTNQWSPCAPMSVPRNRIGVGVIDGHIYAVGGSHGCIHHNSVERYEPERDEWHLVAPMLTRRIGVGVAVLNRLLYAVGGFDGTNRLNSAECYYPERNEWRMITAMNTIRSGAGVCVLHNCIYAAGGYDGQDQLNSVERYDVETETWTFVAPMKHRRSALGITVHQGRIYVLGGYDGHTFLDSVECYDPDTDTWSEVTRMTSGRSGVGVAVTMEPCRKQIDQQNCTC

Experiments:
Assay in all cases: log2 fold change, soluble protein after heating vs DMSO (PISA); higher = thermal stabilisation; K562 cells, 10 uM, 30 min; active = over 0.2 and 3.5 SD of the protein, either way, in both replicates (recomputed)
[1] = compound: CC[C@@H]1C(=O)N(C)c2cnc(Nc3ccc(C(=O)NC4CCN(C)CC4)cc3OC)nc2N1C1CCCC1
How it was run: (§1)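 Soluble protein was defined as the supernatant after 21,000xg for 90 min. It came from K562 cells at 2×10^6 cells/mL given 10 μM compound for 30 min, heated in aliquots for 3 min across 48°C-58°C, pooled, and extracted in PBS with 0.5% NP-40 at 4°C, and was quantified by TMTpro 16plex LC-MS/MS with equalised channel sums. Thermal stability against control samples, from duplicates, is reported as log2 fold change.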

volasertib = compound: CC[C@@H]1C(=O)N(C)c2cnc(Nc3ccc(C(=O)N[C@H]4CC[C@H](N5CCN(CC6CC6)CC5)CC4)cc3OC)nc2N1C(C)C [volasertib]
How it was run: as §1

[2] = compound: CC[C@H](C)N1C=C(C2=C(C=C(C=C21)C3=CN=C(C=C3)N4CCNCC4)C(=O)NCC5=C(C=C(NC5=O)C)C)C
How it was run: as §1

epoxomicin = compound: CC[C@H](C)[C@@H](C(=O)N[C@@H]([C@@H](C)O)C(=O)N[C@@H](CC(C)C)C(=O)[C@]1(CO1)C)NC(=O)[C@H]([C@@H](C)CC)N(C)C(=O)C [epoxomicin]
How it was run: as §1

[3] = compound: CCn1cc(-c2ccnc3[nH]c(-c4cccc(CN(C)C)c4)cc23)c(-c2ccc(NC(=O)N(C)C)cc2)n1
How it was run: as §1

[4] = compound: CN(C)CC(=O)Nc1ccc2[nH]c(=O)c3ccccc3c2c1
How it was run: as §1

[5] = compound: CN1C2=C(C3=C1C(=O)N(N=C3)CC4=CC(=CC=C4)N)SC(=C2)S(=O)C
How it was run: as §1

[6] = compound: CN1CCC(CNc2ccc3ncc(-c4cccc(OC(F)(F)F)c4)n3n2)CC1
How it was run: as §1

[7] = compound: CCn1c(C(=O)N(C2CC2)C2CC2)cc2c3c(ncn3C)c(Nc3cc(C)n(C)n3)nc21
How it was run: as §1

rosiglitazone = compound: CN(CCOC1=CC=C(C=C1)C[C@H]2C(=O)NC(=O)S2)C3=CC=CC=N3 (racemic) [rosiglitazone]
How it was run: as §1

Measured: log2 fold change

KIF11 (UniProt P52732)
inactive: [1] 0.016 | volasertib -0.42 | [2] 0.081 | epoxomicin -0.032 | [3] 0.023 | [4] 0.041 | [5] 0.182 | [6] 0.022

KAT6B (UniProt Q8WYB5)
inactive: [1] -0.006 | volasertib 0.013 | [2] -0.064 | [7] 0.072 | [3] -0.04 | [4] -0.032 | rosiglitazone -0.026 | [6] 0

KNOP1 (UniProt Q1ED39)
inactive: [1] 0.055 | volasertib -0.013 | [2] -0.179 | [7] -0.283 | [3] 0.023 | [4] -0.04 | rosiglitazone -0.07 | [5] 0.136 | [6] 0.283

KIFBP (UniProt Q96EK5)
active: volasertib -0.333
inactive: [1] -0.007 | [2] 0.11 | epoxomicin -0.035 | [3] 0.017 | [4] 0.038 | [5] 0.095 | [6] -0.046

KNG1 (UniProt P01042)
inactive: [1] -0.039 | volasertib 0.125 | [2] -0.097 | [7] 0.033 | [3] 0.059 | [4] -0.153 | rosiglitazone 0.043 | [5] 0.183 | [6] 0.239

KIF3A (UniProt Q9Y496)
inactive: [1] 0.036 | volasertib -0.039 | [2] -0.187 | epoxomicin 0.068 | [3] -0.093 | [4] 0.032 | [5] -0.023 | [6] -0.162

JMJD6 isoform 3 (UniProt Q6NYC1)
inactive: [1] -0.044 | [2] -0.012 | epoxomicin -0.015 | [3] -0.009 | [4] -0.006 | [5] 0.006 | [6] -0.09
active: volasertib -0.306

KATNBL1 (UniProt Q9H079)
inactive: [1] -0.105 | volasertib 0.089 | [3] 0.053 | [4] 0.008 | [5] 0.192 | [6] 0.072

KIZ (UniProt Q2M2Z5)
inactive: [1] 0.104 | volasertib 0.262 | [3] -0.202 | [6] -0.399

KCTD10 (UniProt Q9H3F6)
active: [6] 0.257
inactive: [1] 0.046 | volasertib 0.022 | [2] 0.055 | epoxomicin -0.019 | [3] -0.01 | [4] 0.023 | [5] 0.003

KIF3B (UniProt O15066)
inactive: [1] 0.156 | volasertib -0.009 | epoxomicin -0.134 | [3] 0.159 | [4] -0.078 | [5] -0.052
active: [6] 0.378

KDM1A isoform 2 (UniProt O60341)
inactive: [1] 0.135 | volasertib -0.028 | [2] 0.06 | epoxomicin 0.101 | [3] -0.111 | [4] 0.006 | [5] -0.001 | [6] -0.091

KEL (UniProt P23276)
inactive: [1] 0.195 | volasertib -0.085 | [2] -0.085 | epoxomicin 0.063 | [3] -0.013 | [4] -0.007 | [5] 0.018 | [6] 0.088

KAT7 (UniProt O95251)
inactive: [1] 0.104 | volasertib -0.001 | [2] -0.244 | [7] -0.172 | [4] 0.027 | rosiglitazone 0.028

KLC2 (UniProt Q9H0B6)
inactive: [1] -0.03 | volasertib -0.059 | [2] 0.038 | epoxomicin 0.015 | [3] 0.02 | [4] -0.003 | [5] -0.013 | [6] -0.131

KLF16 (UniProt Q9BXK1)
inactive: [1] 0.017 | volasertib 0.08 | [2] -0.072 | [7] 0.023 | [3] 0.055 | [4] 0.086 | rosiglitazone 0.054 | [5] 0.149 | [6] 0.036

Retrieved one by one from above (2):
KAT7 (UniProt O95251)
inactive: [1] 0.104 | volasertib -0.001 | [2] -0.244 | [7] -0.172 | [4] 0.027 | rosiglitazone 0.028

KIF3A (UniProt Q9Y496)
inactive: [1] 0.036 | volasertib -0.039 | [2] -0.187 | epoxomicin 0.068 | [3] -0.093 | [4] 0.032 | [5] -0.023 | [6] -0.162

Additional entries.

KLHDC4 (UniProt Q8TBB5)
inactive: [1] 0.091 | volasertib -0.342 | [2] 0.012 | epoxomicin -0.026 | [3] -0.064 | [4] 0.065 | [5] 0.075 | [6] 0.158

KIF1B isoform 4 (UniProt O60333)
active: [6] -0.299
inactive: [1] -0.042 | volasertib -0.11 | [2] 0.052 | epoxomicin 0.039 | [3] -0.005 | [4] 0.123 | [5] -0.001

KLF1 (UniProt Q13351)
inactive: [1] -0.006 | volasertib 0.053 | [2] -0.166 | [3] 0.175 | [4] 0.013 | rosiglitazone -0.215 | [5] -0.041 | [6] 0.212

KHDC4 (UniProt Q7Z7F0)
inactive: [1] -0.063 | [2] 0.107 | epoxomicin 0.036 | [3] -0.057 | [4] 0.137 | [5] 0.071 | [6] -0.014
active: volasertib -0.236

KNTC1 (UniProt P50748)
inactive: [1] -0.255 | [2] 0.022 | epoxomicin 0.016 | [3] -0.007 | [4] 0.037 | [5] 0.027 | [6] -0.219
active: volasertib -0.504

KIF14 (UniProt Q15058)
inactive: [1] 0.354 | volasertib 0.123 | epoxomicin -0.091 | [7] -0.059 | [4] 0.023 | rosiglitazone 0.083 | [5] -0.117

KEAP1 (UniProt Q14145)
inactive: [1] -0.026 | [2] -0.034 | epoxomicin -0.024 | [3] 0.019 | [4] 0.033 | [5] 0.056 | [6] 0.053
active: volasertib -0.357

KLHL36 (UniProt Q8N4N3)
inactive: [1] -0.016 | [2] 0.031 | epoxomicin -0.012

KCTD2 (UniProt Q14681)
inactive: [1] 0.003 | volasertib 0.029 | [2] -0.033 | epoxomicin -0.052 | [3] -0.024 | [4] -0.068 | [5] 0.049 | [6] -0.623

JPT2 isoform 2 (UniProt Q9H910)
inactive: [1] -0.297 | volasertib -0.069 | [2] -0.022 | [7] 0.017 | [4] 0.022 | rosiglitazone 0.004
